Values of other authors, collected in patent publication US20260345792A1, “PROTACs AND HyT-PD MOLECULES FOR TARGETED PROTEIN DEGRADATION OF DCAF15 AND THEIR USE IN THE TREATMENT OF AMYLOIDOSIS” (KRÆFTENS BEKÆMPELSE, priority 2023, published 2026).
At least one structure is not confirmed: it was looked up by name or label, or the drawing left a doubt.

System: DCAF15
Conditions: Han et al., 2017 and WO 2022/169755; cited from earlier work

Nc1ccc(S(=O)(=O)Nc2cnc3c(Cl)cccc3n2)cc1 [chloroquinoxaline sulfonamide (CQS), chloroquinoxaline sulfonamide]
ligand for DCAF15: act as ligands for DCAF15
